Laboratory results: publication PMC7819943, “Rice protein-binding microarrays: a tool to detect cis-acting elements near promoter regions in rice”
This is one part of the list.

Protein sequences, listed by entry. Tags and fused reporters are not part of them.
UniProt Q0JBA9, entry or part of it: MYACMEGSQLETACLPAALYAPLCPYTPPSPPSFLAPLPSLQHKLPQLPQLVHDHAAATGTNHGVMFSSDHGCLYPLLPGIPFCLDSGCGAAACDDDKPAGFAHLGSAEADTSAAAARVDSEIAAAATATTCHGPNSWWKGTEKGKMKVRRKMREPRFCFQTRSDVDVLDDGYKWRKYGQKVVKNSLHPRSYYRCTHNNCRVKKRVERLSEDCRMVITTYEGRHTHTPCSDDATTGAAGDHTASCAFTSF

These sequences were tested against OsWRKY34 (Oryza sativa, UniProt Q0JBA9 1-250) (assay: protein-binding microarray (RPBM); PBS, 2% BSA, 51.3 ng/ul salmon testes DNA, 50 uM zinc acetate, 200 nM TF, 25 C, 1 h; high values mean tight binding). Conditions: protein: recombinant; tags: N-terminal polyhistidine and DsRed monomer fusion (pET32a); label: CyDye5-dUTP incorporated in the synthesized complementary strand; 3' TTTTT single-stranded linker to array surface; dsDNA, one strand shown.
Method in brief: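 Transcription factors were made in E. coli BL21-CodonPlus as N-terminal fusions to a polyhistidine tag and DsRed, then purified on Ni–NTA. After primer extension with Cy5-dUTP and blocking with 2% BSA, a custom Agilent array was exposed for 1 h at 25 °C to 200 nM protein in PBS, 2% BSA, salmon testes DNA and 50 µM zinc acetate. Washed arrays were scanned on an Axon 4000B, and the binding signal is per-feature fluorescence intensity in arbitrary units.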

Sequence | binding signal
TGTTCCTTTCTTTTCTGTCACATTATGTGCACAATATTTTCGGAGTCACCTAGTGCAG | 10500 fluorescence intensity (a.u.)
CCGGTCTCTGTCTTTTTAGCGTGTATTAGACGGCTCACTCCGGAGTCACCTAGTGCAG | 9350 fluorescence intensity (a.u.)
TCCACGTTCACTTATCAGCCCCAACGTCTTAGCTTCCGATCGGAGTCACCTAGTGCAG | 9260 fluorescence intensity (a.u.)
TTAACCCTTACGGGTTTTTGCTAGGCTCCTTTTTTTTTTACGGAGTCACCTAGTGCAG | 9610 fluorescence intensity (a.u.)
CTAGTATAACGGTGATCTCTCCTAGGTTGCTTTTTTTTTTCGGAGTCACCTAGTGCAG | 12300 fluorescence intensity (a.u.)
CCCGACGACTTGACCCGTTGACCAATAAGACACCTTGAAGCGGAGTCACCTAGTGCAG | 14400 fluorescence intensity (a.u.)
GGTAATGATATATTGGTTTATTTGTCTTCTTACCTGCCAACGGAGTCACCTAGTGCAG | 9910 fluorescence intensity (a.u.)
TCTCGTATCTGCCCCATTAATCAATTCCCACGGCCGTACTCGGAGTCACCTAGTGCAG | 10800 fluorescence intensity (a.u.)
AACAGAAGAGTAGTTGACTTTAGCCACACTCCGAAGCTATCGGAGTCACCTAGTGCAG | 8390 fluorescence intensity (a.u.)
CAATCCGAACCGTTTCGCGCCATCCGATCGAGGCCGCCACCGGAGTCACCTAGTGCAG | 9050 fluorescence intensity (a.u.)
GTTTGTCGTAGTAGTTTATTTTTGACACCGGCTTTCAAATCGGAGTCACCTAGTGCAG | 9880 fluorescence intensity (a.u.)
CCAAGCCACCACGCCACCCAAACCGCGATTTCTGATCGATCGGAGTCACCTAGTGCAG | 8300 fluorescence intensity (a.u.)
CGCTCGTCCCCATTGTTGTCGTTGCTAGTGGTCATTAAAACGGAGTCACCTAGTGCAG | 8730 fluorescence intensity (a.u.)
TCCGCTACCAACCGCTTCCTTTTCCTTCTGCTGCTGCTGCCGGAGTCACCTAGTGCAG | 9080 fluorescence intensity (a.u.)
CTTCACAACTCACCGAATCTACGGTTCAGATTGCTCGCAACGGAGTCACCTAGTGCAG | 8850 fluorescence intensity (a.u.)
TGTGAATGGATTAGGGTGGTTGATGCCATACTACGGCCGCCGGAGTCACCTAGTGCAG | 8700 fluorescence intensity (a.u.)
AAACAACTTACAATTCATCCAAGTTCTTTCCATCTGTTACCGGAGTCACCTAGTGCAG | 10500 fluorescence intensity (a.u.)
TGTGGGTGGGGTTATTTTTTCTTCGTTTTCCTATTTACGACGGAGTCACCTAGTGCAG | 15700 fluorescence intensity (a.u.)
TCGTTCTCGATCTAGCCAGCTCATCAATCTTTTTTTCTCTCGGAGTCACCTAGTGCAG | 10300 fluorescence intensity (a.u.)
AATTGTCTTTGATCTCTCCCATTTCCATTTGCCTAATCCACGGAGTCACCTAGTGCAG | 9080 fluorescence intensity (a.u.)
CTGGGTTTTATCATATCTGACCGTATGAGTAGTTGGCATTCGGAGTCACCTAGTGCAG | 8410 fluorescence intensity (a.u.)

Part of the list above, as comma-separated lines:
Sequence,binding signal
TTAACCCTTACGGGTTTTTGCTAGGCTCCTTTTTTTTTTACGGAGTCACCTAGTGCAG,9610 fluorescence intensity (a.u.)
CTAGTATAACGGTGATCTCTCCTAGGTTGCTTTTTTTTTTCGGAGTCACCTAGTGCAG,12300 fluorescence intensity (a.u.)

(continued)

Sequence | binding signal
CACCACTCCATCTCCTTAATTGCACTTCCATTTCACCTCACGGAGTCACCTAGTGCAG | 11200 fluorescence intensity (a.u.)
CCCCAATCCACACACCATACATAATTACATACTACCAGCTCGGAGTCACCTAGTGCAG | 8420 fluorescence intensity (a.u.)
GGACAGAGGGATAAGTGGTTTTAAGGTGATGCATCACATACGGAGTCACCTAGTGCAG | 8200 fluorescence intensity (a.u.)
CTCCTCCACGTGACCCGCGCCACCACCACCACCACCACCGCGGAGTCACCTAGTGCAG | 8920 fluorescence intensity (a.u.)
CCTTCACTCTCCTCTCCATCTCGTTTTTTTTTTTCTTTTTCGGAGTCACCTAGTGCAG | 8410 fluorescence intensity (a.u.)
TCGTCCATACGTTTCTCAATTGTTAAACGGTGTGTTTTTTCGGAGTCACCTAGTGCAG | 9140 fluorescence intensity (a.u.)
AAGTTATTATAGGCTTATGGCATTCCTTCATTTCTATATTCGGAGTCACCTAGTGCAG | 9490 fluorescence intensity (a.u.)
GCTCGGTGTGGCGATCTCACAGCCGCATATCGCATTTCACCGGAGTCACCTAGTGCAG | 8680 fluorescence intensity (a.u.)
TTTTGGGATTTCTCGGGTATATTCTATAGATTTTCATTTTCGGAGTCACCTAGTGCAG | 13100 fluorescence intensity (a.u.)
TCGACATCTACGCTTATCATTTCTCCCTCTACTATTGCTGCGGAGTCACCTAGTGCAG | 8530 fluorescence intensity (a.u.)
TTTCGACTCCATTCACCTTTTTAAGCCTTAAGTCATGTTTCGGAGTCACCTAGTGCAG | 8600 fluorescence intensity (a.u.)
CCCTGTCCCCTTCACGGTTACCTCCTCACTTCACTCTCTTCGGAGTCACCTAGTGCAG | 8900 fluorescence intensity (a.u.)
CCTGTAACCACATTTCAATATTGAAAAGACTTTTGTTGCTCGGAGTCACCTAGTGCAG | 8510 fluorescence intensity (a.u.)
CTGTGACAGCAGCAGCCACCGCCCACCGCCGCCGCCGCTTCGGAGTCACCTAGTGCAG | 8240 fluorescence intensity (a.u.)
TTCTTGGAGATGGTCACCGTTGACTTCCGGCCGGACCTCACGGAGTCACCTAGTGCAG | 13700 fluorescence intensity (a.u.)
TGAGCCCATTCATTTTTATTCCGGGTGAGGAAGATGGGCCCGGAGTCACCTAGTGCAG | 8200 fluorescence intensity (a.u.)
CCACCGGCGAGTCCCGCTTGACCGCCACGGCGCCACCCATCGGAGTCACCTAGTGCAG | 8390 fluorescence intensity (a.u.)
TGGATTGGTCCGGTGATTGCTTGCGTTCTTATACACTAGACGGAGTCACCTAGTGCAG | 8140 fluorescence intensity (a.u.)
TCCGCCTCCACCTCCGCCGCCCGCCGCCCGCCGCCCGCCGCGGAGTCACCTAGTGCAG | 8960 fluorescence intensity (a.u.)
GGGGAAGCTAGCAAACAGTACTACTAACCTTCTGCTTATACGGAGTCACCTAGTGCAG | 8860 fluorescence intensity (a.u.)
TTGCAACTATTATAGTACTGTATACTCCTACTAATTTAACCGGAGTCACCTAGTGCAG | 8690 fluorescence intensity (a.u.)
